Counter-ions that a name gives are not always drawn. Some of the results follow. This data set is noisy: repeats of one test often differ as much as different tests do.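 ReNCell VM, a human fetal ventral-midbrain neural progenitor line, was differentiated without mitogens. Blinded raters scored images stained for doublecortin (early neurons) or tyrosine hydroxylase (dopaminergic neurons) against untreated wells (0 = no change). Scores were averaged across repeats and both raters, and compounds averaging 2 or more were selected as hits for retesting.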
Legend:
ReNCell VM [1] = experiment: neuronal differentiation score (DCX+ cell fraction vs untreated, manual image score) (score (-3 to 3)); higher = more neuronal differentiation; settings: 2 uM, 2 weeks
ReNCell VM [2] = experiment: dopaminergic neuron differentiation score (TH+ cell fraction vs untreated, manual image score) (score (0 to 3)); higher = more TH+ dopaminergic neuron differentiation; settings: 2 uM, 4 weeks, BDNF 10 ng/ml + GDNF 10 ng/ml

C[C@@H]1C[C@@H]([C@H](O)CC2CC(=O)NC(=O)C2)C(=O)[C@@H](C)C1 [Cycloheximide]
inactive: neuronal differentiation score (ReNCell VM [1]; library: Phytochemical) 0 | neuronal differentiation score (ReNCell VM [1]; library: Prestwick) 0 | dopaminergic neuron differentiation score (ReNCell VM [2]; library: Phytochemical) 0 | dopaminergic neuron differentiation score (ReNCell VM [2]; library: Prestwick) 0

COc1cc2c(c(OC)c1OC)-c1ccc(OC)c(=O)cc1[C@@H](NC(C)=O)CC2 [Colchicine]
inactive: neuronal differentiation score (ReNCell VM [1]; library: LOPAC) -1 | neuronal differentiation score (ReNCell VM [1]; library: Phytochemical) 0 | neuronal differentiation score (ReNCell VM [1]; library: Prestwick) 0 | neuronal differentiation score (ReNCell VM [1]; library: Tocriscreen) 0 | dopaminergic neuron differentiation score (ReNCell VM [2]; library: LOPAC) 0 | dopaminergic neuron differentiation score (ReNCell VM [2]; library: Phytochemical) 0 | dopaminergic neuron differentiation score (ReNCell VM [2]; library: Prestwick) 0 | dopaminergic neuron differentiation score (ReNCell VM [2]; library: Tocriscreen) 0

CN1C(=O)CCS(=O)(=O)C1c1ccc(Cl)cc1 (stereo not given) [Chlormezanone]
inactive: neuronal differentiation score (ReNCell VM [1]; library: LOPAC) 0 | neuronal differentiation score (ReNCell VM [1]; library: Prestwick) 0 | neuronal differentiation score (ReNCell VM [1]; library: Tocriscreen) 0 | dopaminergic neuron differentiation score (ReNCell VM [2]; library: LOPAC) 0 | dopaminergic neuron differentiation score (ReNCell VM [2]; library: Prestwick) 0 | dopaminergic neuron differentiation score (ReNCell VM [2]; library: Tocriscreen) 0

CN1[C@@H]2C[C@@H](OC(=O)[C@H](CO)c3ccccc3)C[C@H]1[C@@H]1O[C@@H]12 [Scopolamine hydrochloride]
inactive: neuronal differentiation score (ReNCell VM [1]; library: Phytochemical) 0 | neuronal differentiation score (ReNCell VM [1]; library: Prestwick) 0 | dopaminergic neuron differentiation score (ReNCell VM [2]; library: Phytochemical) 0 | dopaminergic neuron differentiation score (ReNCell VM [2]; library: Prestwick) 0

CN1C[C@H](CNC(=O)OCc2ccccc2)C[C@@H]2c3cccc4c3c(cn4C)C[C@H]21 [Metergoline]
inactive: neuronal differentiation score (ReNCell VM [1]; library: LOPAC) 0 | neuronal differentiation score (ReNCell VM [1]; library: Prestwick) 0 | neuronal differentiation score (ReNCell VM [1]; library: Tocriscreen) 0 | dopaminergic neuron differentiation score (ReNCell VM [2]; library: LOPAC) 0 | dopaminergic neuron differentiation score (ReNCell VM [2]; library: Prestwick) 0 | dopaminergic neuron differentiation score (ReNCell VM [2]; library: Tocriscreen) 0

CN1[C@@H]2CC[C@H]1C[C@@H](OC(=O)[C@H](CO)c1ccccc1)C2 [Hyoscyamine (L)]
inactive: neuronal differentiation score (ReNCell VM [1]; library: Phytochemical) 0 | neuronal differentiation score (ReNCell VM [1]; library: Prestwick) 0 | dopaminergic neuron differentiation score (ReNCell VM [2]; library: Phytochemical) 0 | dopaminergic neuron differentiation score (ReNCell VM [2]; library: Prestwick) 0

c1ccc(C2CC2)c(OCC2=NCCN2)c1 [Cirazoline hydrochloride]
inactive: neuronal differentiation score (ReNCell VM [1]; library: LOPAC) 0 | neuronal differentiation score (ReNCell VM [1]; library: Tocriscreen) 0 | dopaminergic neuron differentiation score (ReNCell VM [2]; library: LOPAC) 0 | dopaminergic neuron differentiation score (ReNCell VM [2]; library: Tocriscreen) 0

COc1ccc(C[C@H]2NC[C@H](O)[C@H]2OC(C)=O)cc1 [Anisomycin]
inactive: neuronal differentiation score (ReNCell VM [1]; library: Phytochemical) 0 | neuronal differentiation score (ReNCell VM [1]; library: Tocriscreen) 0 | dopaminergic neuron differentiation score (ReNCell VM [2]; library: Phytochemical) 0 | dopaminergic neuron differentiation score (ReNCell VM [2]; library: Tocriscreen) 0

3 structures out of the list, arranged by count of non-hydrogen atoms, low to high.
c1ccc(C2CC2)c(OCC2=NCCN2)c1 [Cirazoline hydrochloride]
inactive: neuronal differentiation score (ReNCell VM [1]; library: LOPAC) 0 | neuronal differentiation score (ReNCell VM [1]; library: Tocriscreen) 0 | dopaminergic neuron differentiation score (ReNCell VM [2]; library: LOPAC) 0 | dopaminergic neuron differentiation score (ReNCell VM [2]; library: Tocriscreen) 0

CN1[C@@H]2CC[C@H]1C[C@@H](OC(=O)[C@H](CO)c1ccccc1)C2 [Hyoscyamine (L)]
inactive: neuronal differentiation score (ReNCell VM [1]; library: Phytochemical) 0 | neuronal differentiation score (ReNCell VM [1]; library: Prestwick) 0 | dopaminergic neuron differentiation score (ReNCell VM [2]; library: Phytochemical) 0 | dopaminergic neuron differentiation score (ReNCell VM [2]; library: Prestwick) 0

CN1C[C@H](CNC(=O)OCc2ccccc2)C[C@@H]2c3cccc4c3c(cn4C)C[C@H]21 [Metergoline]
inactive: neuronal differentiation score (ReNCell VM [1]; library: LOPAC) 0 | neuronal differentiation score (ReNCell VM [1]; library: Prestwick) 0 | neuronal differentiation score (ReNCell VM [1]; library: Tocriscreen) 0 | dopaminergic neuron differentiation score (ReNCell VM [2]; library: LOPAC) 0 | dopaminergic neuron differentiation score (ReNCell VM [2]; library: Prestwick) 0 | dopaminergic neuron differentiation score (ReNCell VM [2]; library: Tocriscreen) 0

Additional records follow:

CC(Cc1ccc(O)cc1)NCC(O)c1cc(O)cc(O)c1 (stereo not given) [Fenoterol hydrobromide]
inactive: neuronal differentiation score (ReNCell VM [1]; library: LOPAC) 0 | neuronal differentiation score (ReNCell VM [1]; library: Prestwick) 0 | dopaminergic neuron differentiation score (ReNCell VM [2]; library: LOPAC) 0 | dopaminergic neuron differentiation score (ReNCell VM [2]; library: Prestwick) 0

C=C(C)[C@H]1CN[C@H](C(=O)O)[C@H]1CC(=O)O [Kainic acid]
inactive: neuronal differentiation score (ReNCell VM [1]; library: LOPAC) 0 | neuronal differentiation score (ReNCell VM [1]; library: Phytochemical) 0 | neuronal differentiation score (ReNCell VM [1]; library: Tocriscreen) 0 | dopaminergic neuron differentiation score (ReNCell VM [2]; library: LOPAC) 0 | dopaminergic neuron differentiation score (ReNCell VM [2]; library: Phytochemical) 0 | dopaminergic neuron differentiation score (ReNCell VM [2]; library: Tocriscreen) 0

C=CCN1CC[C@]23c4c5ccc(O)c4O[C@H]2/C(=N/NC(=O)c2ccccc2)CC[C@@]3(O)[C@H]1C5 [Naloxone benzoylhydrazone]
inactive: neuronal differentiation score (ReNCell VM [1]; library: LOPAC) 0 | neuronal differentiation score (ReNCell VM [1]; library: Tocriscreen) 0 | dopaminergic neuron differentiation score (ReNCell VM [2]; library: LOPAC) 0 | dopaminergic neuron differentiation score (ReNCell VM [2]; library: Tocriscreen) 0

C=C(C)[C@@H]1[C@H]2OC(=O)[C@@H]1[C@]1(O)C[C@H]3O[C@]34C(=O)O[C@H]2[C@]14C [Picrotoxinin]
inactive: neuronal differentiation score (ReNCell VM [1]; library: Phytochemical) 0 | neuronal differentiation score (ReNCell VM [1]; library: Prestwick) 0 | dopaminergic neuron differentiation score (ReNCell VM [2]; library: Phytochemical) 0 | dopaminergic neuron differentiation score (ReNCell VM [2]; library: Prestwick) 0

COc1cc([C@@H]2c3cc4c(cc3[C@H](O)[C@H]3COC(=O)[C@H]23)OCO4)cc(OC)c1OC [Podophyllotoxin]
inactive: neuronal differentiation score (ReNCell VM [1]; library: LOPAC) 0 | neuronal differentiation score (ReNCell VM [1]; library: Phytochemical) 0 | neuronal differentiation score (ReNCell VM [1]; library: Prestwick) 0 | dopaminergic neuron differentiation score (ReNCell VM [2]; library: LOPAC) 0 | dopaminergic neuron differentiation score (ReNCell VM [2]; library: Phytochemical) 0 | dopaminergic neuron differentiation score (ReNCell VM [2]; library: Prestwick) 0

COc1ccc(CNC(=O)/C=C/c2ccc3[nH]cc(CCN(C)C)c3c2)cc1
inactive: neuronal differentiation score (ReNCell VM [1]; library: LOPAC) 0 | neuronal differentiation score (ReNCell VM [1]; library: Tocriscreen) 0 | dopaminergic neuron differentiation score (ReNCell VM [2]; library: LOPAC) 0 | dopaminergic neuron differentiation score (ReNCell VM [2]; library: Tocriscreen) 0

NC(=O)CN1CCCC1=O [Piracetam]
inactive: neuronal differentiation score (ReNCell VM [1]; library: LOPAC) 1 | neuronal differentiation score (ReNCell VM [1]; library: Prestwick) 0 | dopaminergic neuron differentiation score (ReNCell VM [2]; library: LOPAC) 0 | dopaminergic neuron differentiation score (ReNCell VM [2]; library: Prestwick) 0

Fc1ccc(C(OCCN2CCN(CCCc3ccccc3)CC2)c2ccc(F)cc2)cc1
inactive: neuronal differentiation score (ReNCell VM [1]; library: LOPAC) 0 | neuronal differentiation score (ReNCell VM [1]; library: Prestwick) 0 | neuronal differentiation score (ReNCell VM [1]; library: Tocriscreen) 0 | dopaminergic neuron differentiation score (ReNCell VM [2]; library: LOPAC) 0 | dopaminergic neuron differentiation score (ReNCell VM [2]; library: Prestwick) 0 | dopaminergic neuron differentiation score (ReNCell VM [2]; library: Tocriscreen) 0

C=CCN1CC[C@]23c4c5ccc(O)c4O[C@H]2C(=O)CC[C@@]3(O)[C@H]1C5 [Naloxone hydrochloride]
inactive: neuronal differentiation score (ReNCell VM [1]; library: LOPAC) 1 | neuronal differentiation score (ReNCell VM [1]; library: Prestwick) 0 | neuronal differentiation score (ReNCell VM [1]; library: Tocriscreen) 0 | dopaminergic neuron differentiation score (ReNCell VM [2]; library: LOPAC) 0 | dopaminergic neuron differentiation score (ReNCell VM [2]; library: Prestwick) 0 | dopaminergic neuron differentiation score (ReNCell VM [2]; library: Tocriscreen) 0

CNC(=O)Oc1ccc2c(c1)[C@]1(C)CCN(C)[C@@H]1N2C [Eserine sulfate, physostigmine sulfate]
inactive: neuronal differentiation score (ReNCell VM [1]; library: Phytochemical) 1 | neuronal differentiation score (ReNCell VM [1]; library: Prestwick) 0 | dopaminergic neuron differentiation score (ReNCell VM [2]; library: Phytochemical) 0 | dopaminergic neuron differentiation score (ReNCell VM [2]; library: Prestwick) 0

C[C@@H]1CC[C@H]2[C@@H](C)C(=O)O[C@@H]3O[C@@]4(C)CC[C@@H]1[C@]32OO4 [Artemisinin]
inactive: neuronal differentiation score (ReNCell VM [1]; library: Phytochemical) 0 | neuronal differentiation score (ReNCell VM [1]; library: Prestwick) 0 | neuronal differentiation score (ReNCell VM [1]; library: Tocriscreen) 0 | dopaminergic neuron differentiation score (ReNCell VM [2]; library: Phytochemical) 0 | dopaminergic neuron differentiation score (ReNCell VM [2]; library: Prestwick) 1 | dopaminergic neuron differentiation score (ReNCell VM [2]; library: Tocriscreen) 0

N[C@@H]1C[C@H]1c1ccccc1 [Tranylcypromine hydrochloride]
inactive: neuronal differentiation score (ReNCell VM [1]; library: LOPAC) -2 | neuronal differentiation score (ReNCell VM [1]; library: Prestwick) -1 | neuronal differentiation score (ReNCell VM [1]; library: Tocriscreen) -1 | dopaminergic neuron differentiation score (ReNCell VM [2]; library: LOPAC) 0 | dopaminergic neuron differentiation score (ReNCell VM [2]; library: Prestwick) 0 | dopaminergic neuron differentiation score (ReNCell VM [2]; library: Tocriscreen) 0
